{
  "source": "patent US20060089363A1",
  "about": "“Antibacterial agents” (VERNALIS (OXFORD) LIMITED, priority 2002, published 2006)",
  "test_system": "clinical isolates of S. pneumoniae",
  "assay": "Antibacterial Assay: MIC by standard agar plate dilution method",
  "assay_type": "cell-based",
  "conditions": "Iso-Sensitest agar with 5% horse blood and NAD, 18 to 24 hr incubation",
  "note": "Some results were stated once for a whole list of compounds, not compound by compound. For at least one compound, name, drawing or mass did not settle the structure.",
  "data": [
    {"smiles": "CN(C(=O)[C@@H](NC(=O)[C@H](CC1CCCC1)CN(O)C=O)C(C)(C)C)C1CCN(C(=O)c2ccc([N+](=O)[O-])o2)CC1", "note": "[Compound 34]", "values": [
      {"measurement": "range of MICs determined for the Strep. pneumoniae panel", "result": "< 0.125", "unit": "ngm/litre"}
    ]},
    {"smiles": "CN(C(=O)[C@@H](NC(=O)[C@H](CC1CCCC1)CN(O)C=O)C(C)(C)C)C1CCN(C(=O)c2ccc(Cl)s2)CC1", "note": "[Compound 36, N-[1-(5-Chloro-thiophene-2-carbonyl)-piperidin-4-yl]-2S-[2R-cyclopentylmethyl-3-(formyl-hydroxy-amino)-propionylamino]-3,3,N-trimethyl-butyramide]", "values": [
      {"measurement": "range of MICs determined for the Strep. pneumoniae panel", "result": "< 0.125", "unit": "ngm/litre"}
    ]}
  ]
}
